Taken from: PubChem BioAssay AID743454 (Peter MacCallum Cancer Centre, 2014)

Test: 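Search for knock-downs that restore vorinostat killing in resistant colon cancer cells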 (primary screen)
Cell system: human HCT116-VR colon cancer cells, selected for vorinostat resistance
Reagent: siRNA pool against human genes, 40 nM siRNA pool
Time to read-out: vorinostat for 24 h, read-out about 72 h after transfection
Conditions: vorinostat at 2.5 µM final
Measurement: 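Two measures, CellTiter-Fluor viability and luminescent caspase 3/7 activity, each as fold change against same-plate mock wells, mean of duplicates, then screen-wide robust z-score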
Reading the numbers: viability robust z-score: higher = more viable cells than screen typical; caspase robust z-score: higher = more caspase 3/7 activity than screen typical
Hit rule: 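Hits are knock-downs in viability class RV1/RV2 or caspase class CA1/CA2, excluding ones that killed cells in the no-drug cell-count arm; hits then retested with single siRNAs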
This is an unselected part of about 18,000 deposited reagents. In the full data, 450 (2.5%) are marked active. 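Single biological run; no consistent viability z cut-off exists, so the class columns, not z-scores, define the calls.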 Entries without a mark were called inactive.

With RECQL4 (RecQ like helicase 4), what was measured?
viability hit class: no change; caspase hit class: no change; viability robust z-score: 0.06; caspase robust z-score: 0.07

For ATAD2 (ATPase family AAA domain containing 2), what does the deposit list?
viability hit class: no change; caspase hit class: no change; viability robust z-score: -0.34; caspase robust z-score: -0.76

For DTNA (dystrobrevin alpha), what was measured?
viability hit class: no change; caspase hit class: no change; viability robust z-score: -2.31; caspase robust z-score: 0.24

What is on record for CCDC69 (coiled-coil domain containing 69)?
viability hit class: no change; caspase hit class: no change; viability robust z-score: -0.6; caspase robust z-score: 0.06

For SP1 (Sp1 transcription factor), what was measured?
viability hit class: no change; caspase hit class: no change; viability robust z-score: -2.12; caspase robust z-score: 4.72

What is on record for COPA (coat protein complex I subunit alpha)?
viability hit class: no change; caspase hit class: no change; viability robust z-score: -3.42; caspase robust z-score: 0.18

How did the screen score WWP2 (WW domain containing E3 ubiquitin protein ligase 2)?
viability hit class: no change; caspase hit class: no change; viability robust z-score: -1.1; caspase robust z-score: 0.85

What did the screen give for CACHD1 (cache domain containing 1)?
viability hit class: no change; caspase hit class: no change; viability robust z-score: -0.37; caspase robust z-score: -0.6

Which result is listed for GNPTG (N-acetylglucosamine-1-phosphate transferase subunit gamma)?
viability hit class: no change; caspase hit class: no change; viability robust z-score: -0.16; caspase robust z-score: 4.69

With STX10 (syntaxin 10), what was measured?
viability hit class: no change; caspase hit class: no change; viability robust z-score: 0.92; caspase robust z-score: 0.96

What is on record for TSPAN9 (tetraspanin 9)?
viability hit class: no change; caspase hit class: no change; viability robust z-score: 0.67; caspase robust z-score: 2.77

What did the screen give for CAPNS2 (calpain small subunit 2)?
viability hit class: no change; caspase hit class: no change; viability robust z-score: -1.06; caspase robust z-score: 0.12

3 entries already listed, ordered by “caspase robust z-score”, lowest first.
ATAD2 (ATPase family AAA domain containing 2) → viability hit class = no change; caspase hit class = no change; viability robust z-score = -0.34; caspase robust z-score = -0.76
RECQL4 (RecQ like helicase 4) → viability hit class = no change; caspase hit class = no change; viability robust z-score = 0.06; caspase robust z-score = 0.07
DTNA (dystrobrevin alpha) → viability hit class = no change; caspase hit class = no change; viability robust z-score = -2.31; caspase robust z-score = 0.24

Next records follow:
For ATP13A1 (ATPase 13A1), how do the results read?
viability hit class: no change; caspase hit class: no change; viability robust z-score: 1.13; caspase robust z-score: 0.56

For PRSS37 (serine protease 37), what does the deposit list?
viability hit class: no change; caspase hit class: no change; viability robust z-score: 1.12; caspase robust z-score: 4.48

How did the screen score UBE2J2 (ubiquitin conjugating enzyme E2 J2)?
viability hit class: no change; caspase hit class: no change; viability robust z-score: 0.24; caspase robust z-score: 1.98

What is on record for SLC22A25?
viability hit class: no change; caspase hit class: no change; viability robust z-score: 0.01; caspase robust z-score: 0.99

Which result is listed for TCL1A (TCL1 family AKT coactivator A)?
viability hit class: no change; caspase hit class: no change; viability robust z-score: -0.12; caspase robust z-score: 0.56

For MGAT4A, how do the results read?
viability hit class: no change; caspase hit class: no change; viability robust z-score: 1.86; caspase robust z-score: -0.75

Which result is listed for SLC37A2?
viability hit class: no change; caspase hit class: no change; viability robust z-score: -0.01; caspase robust z-score: 2.02

What is on record for PARP9 (poly(ADP-ribose) polymerase family member 9)?
viability hit class: no change; caspase hit class: no change; viability robust z-score: -0.29; caspase robust z-score: -0.91

How did the screen score CABCOCO1 (ciliary associated calcium binding coiled-coil 1)?
viability hit class: no change; caspase hit class: no change; viability robust z-score: 0.98; caspase robust z-score: -0.21
